{
  "source": "patent US4703034A",
  "about": "“Novel cyclic tetrapeptide” (Merck & Co., Inc., priority 1986, dated 1987)",
  "key": {"male CD rats [1]": {"system": "male CD rats", "experiment": "Plasma glucagon (RIA) in urethane-anesthetized male CD rats after intravenous administration", "type": "in vivo, rat", "settings": "dose of 500 μg per mouse (so in the source), i.v."}, "male CD rats [2]": {"system": "male CD rats", "experiment": "Blood glucose in urethane-anesthetized male CD rats after intravenous (saphenous vein) administration", "type": "in vivo, rat", "settings": "dose of 500 μg per mouse (so in the source), i.v."}},
  "note": "At least one peptide structure holds a part that was inferred or is arguable (an end, a ring closure or a residue). Bridge positions count the residues as written; N and C are the ends. Square brackets hold non-standard residues; d marks the D form. Peptide text beside a SMILES is read from it. * marks the point of attachment. dAad = N[C@H](CCCC(=O)O)C(=O)O; NH(CH2)3Ph = c1ccc(CCCN*)cc1",
  "data": [
    {"smiles": "NCCCC[C@@H]1NC(=O)[C@@H](Cc2c[nH]c3ccccc23)NC(=O)[C@H](Cc2ccccc2)NC(=O)CCC[C@H](C(=O)NCCCc2ccccc2)NC1=O", "note": "[F, Cyclo-(D-Trp-Lys-δ-D-Aad(NHCH2 CH2 CH2 Ph)-Phe)] (F[dW]K[dAad]-{NH(CH2)3Ph}; lactam N-4)", "values": [
      {"measurement": "blood glucagon levels", "setting": "male CD rats [1]", "value": "Significant increases"},
      {"measurement": "level of blood glucose compared to the basal blood glucose level", "setting": "male CD rats [2]; 30 to 90 minutes after dosing", "value": 150, "unit": "%"},
      {"measurement": "level of blood glucose compared to the basal blood glucose level", "setting": "male CD rats [2]; 15 minutes after dosing", "value": 130, "unit": "%"}
    ]}
  ]
}
